Assay results published in the supplement of paper PMC10849652.
This is one part of the list.

Protein sequences, listed by entry. Tags and fused reporters are not part of them. Lines headed by an entry give the natural chain unless they say otherwise; changes in a name come on top.
UniProt Q5VTB9: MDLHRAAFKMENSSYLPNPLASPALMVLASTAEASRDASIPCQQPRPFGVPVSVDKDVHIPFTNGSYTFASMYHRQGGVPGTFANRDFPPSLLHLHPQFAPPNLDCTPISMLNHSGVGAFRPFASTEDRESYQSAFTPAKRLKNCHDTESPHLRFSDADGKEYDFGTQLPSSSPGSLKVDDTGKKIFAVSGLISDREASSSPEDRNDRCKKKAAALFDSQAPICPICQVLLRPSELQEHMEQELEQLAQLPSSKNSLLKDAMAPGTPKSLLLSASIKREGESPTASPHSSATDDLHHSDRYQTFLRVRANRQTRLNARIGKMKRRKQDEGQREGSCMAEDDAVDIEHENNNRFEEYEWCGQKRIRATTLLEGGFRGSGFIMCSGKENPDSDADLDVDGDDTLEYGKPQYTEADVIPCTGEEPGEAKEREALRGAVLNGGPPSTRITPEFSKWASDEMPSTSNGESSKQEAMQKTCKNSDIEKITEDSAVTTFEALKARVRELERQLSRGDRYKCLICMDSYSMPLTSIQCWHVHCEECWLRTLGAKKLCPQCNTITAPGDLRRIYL
UniProt Q13546: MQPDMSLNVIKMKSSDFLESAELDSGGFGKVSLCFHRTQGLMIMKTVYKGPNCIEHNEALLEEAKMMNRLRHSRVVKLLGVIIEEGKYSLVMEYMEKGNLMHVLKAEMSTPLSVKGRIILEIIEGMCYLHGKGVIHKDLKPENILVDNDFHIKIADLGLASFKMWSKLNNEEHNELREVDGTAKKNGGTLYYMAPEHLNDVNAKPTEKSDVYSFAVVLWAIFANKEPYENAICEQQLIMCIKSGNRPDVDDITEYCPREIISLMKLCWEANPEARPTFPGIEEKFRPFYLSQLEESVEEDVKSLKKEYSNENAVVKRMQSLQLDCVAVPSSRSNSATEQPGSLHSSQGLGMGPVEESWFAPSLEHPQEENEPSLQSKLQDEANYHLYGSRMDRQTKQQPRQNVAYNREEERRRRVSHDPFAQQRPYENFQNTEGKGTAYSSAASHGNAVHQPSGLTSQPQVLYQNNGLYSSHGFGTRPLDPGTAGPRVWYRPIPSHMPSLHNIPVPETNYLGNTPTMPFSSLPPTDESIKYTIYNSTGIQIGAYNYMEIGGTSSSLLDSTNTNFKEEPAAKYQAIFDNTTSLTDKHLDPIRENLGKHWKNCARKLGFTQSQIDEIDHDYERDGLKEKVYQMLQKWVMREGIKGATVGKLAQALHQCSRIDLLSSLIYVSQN
UniProt P18754: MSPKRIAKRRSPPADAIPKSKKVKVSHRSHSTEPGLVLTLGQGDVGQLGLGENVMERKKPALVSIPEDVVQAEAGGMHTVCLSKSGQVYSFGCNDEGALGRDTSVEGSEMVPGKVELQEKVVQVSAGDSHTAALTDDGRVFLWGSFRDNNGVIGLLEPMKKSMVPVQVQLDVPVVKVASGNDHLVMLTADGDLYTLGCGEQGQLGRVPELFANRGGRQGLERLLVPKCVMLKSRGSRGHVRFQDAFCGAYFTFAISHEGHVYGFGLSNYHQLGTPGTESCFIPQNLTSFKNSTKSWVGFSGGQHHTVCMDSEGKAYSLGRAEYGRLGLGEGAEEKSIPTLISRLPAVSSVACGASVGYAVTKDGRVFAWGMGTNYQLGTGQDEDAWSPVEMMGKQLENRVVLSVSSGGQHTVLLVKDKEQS
UniProt Q8ND24: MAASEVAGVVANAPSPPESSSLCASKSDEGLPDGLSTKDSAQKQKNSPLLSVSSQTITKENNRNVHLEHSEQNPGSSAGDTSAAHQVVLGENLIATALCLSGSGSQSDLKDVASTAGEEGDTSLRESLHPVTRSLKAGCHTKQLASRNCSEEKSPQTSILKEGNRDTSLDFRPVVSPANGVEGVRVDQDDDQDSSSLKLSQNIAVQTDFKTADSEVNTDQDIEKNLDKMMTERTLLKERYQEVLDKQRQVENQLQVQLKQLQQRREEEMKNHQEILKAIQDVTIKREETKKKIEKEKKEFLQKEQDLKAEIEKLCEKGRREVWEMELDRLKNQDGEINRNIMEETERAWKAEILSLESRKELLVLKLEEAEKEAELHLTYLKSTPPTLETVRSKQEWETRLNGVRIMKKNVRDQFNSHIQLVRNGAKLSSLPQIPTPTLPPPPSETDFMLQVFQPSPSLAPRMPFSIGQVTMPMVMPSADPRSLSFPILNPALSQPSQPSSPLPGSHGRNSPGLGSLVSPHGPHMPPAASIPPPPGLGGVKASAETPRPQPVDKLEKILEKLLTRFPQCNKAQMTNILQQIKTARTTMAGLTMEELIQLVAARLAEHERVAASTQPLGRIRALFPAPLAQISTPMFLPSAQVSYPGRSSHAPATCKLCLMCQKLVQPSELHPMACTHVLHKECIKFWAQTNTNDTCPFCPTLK
UniProt Q9P258, whole entry, looked up: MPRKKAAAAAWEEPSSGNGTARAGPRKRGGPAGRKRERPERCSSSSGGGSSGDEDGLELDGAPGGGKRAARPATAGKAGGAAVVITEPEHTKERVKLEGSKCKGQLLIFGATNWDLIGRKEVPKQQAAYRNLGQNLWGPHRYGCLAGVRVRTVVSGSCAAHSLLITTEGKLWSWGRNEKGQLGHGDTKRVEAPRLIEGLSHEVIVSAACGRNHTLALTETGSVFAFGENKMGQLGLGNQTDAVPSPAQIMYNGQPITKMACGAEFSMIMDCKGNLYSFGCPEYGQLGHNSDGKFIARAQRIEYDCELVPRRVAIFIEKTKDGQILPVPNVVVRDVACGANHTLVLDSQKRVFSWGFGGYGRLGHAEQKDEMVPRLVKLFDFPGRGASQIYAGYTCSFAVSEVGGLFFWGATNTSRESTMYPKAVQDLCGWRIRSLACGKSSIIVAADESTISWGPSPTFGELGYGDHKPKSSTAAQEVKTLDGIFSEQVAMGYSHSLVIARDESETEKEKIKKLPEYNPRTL
UniProt Q9Y508: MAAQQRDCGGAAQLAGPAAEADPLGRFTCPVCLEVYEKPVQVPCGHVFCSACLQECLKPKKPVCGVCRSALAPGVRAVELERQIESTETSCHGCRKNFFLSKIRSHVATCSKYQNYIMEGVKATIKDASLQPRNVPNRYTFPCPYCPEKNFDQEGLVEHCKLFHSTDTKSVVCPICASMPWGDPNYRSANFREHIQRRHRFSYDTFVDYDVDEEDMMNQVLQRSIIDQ
UniProt P40937, whole entry, looked up: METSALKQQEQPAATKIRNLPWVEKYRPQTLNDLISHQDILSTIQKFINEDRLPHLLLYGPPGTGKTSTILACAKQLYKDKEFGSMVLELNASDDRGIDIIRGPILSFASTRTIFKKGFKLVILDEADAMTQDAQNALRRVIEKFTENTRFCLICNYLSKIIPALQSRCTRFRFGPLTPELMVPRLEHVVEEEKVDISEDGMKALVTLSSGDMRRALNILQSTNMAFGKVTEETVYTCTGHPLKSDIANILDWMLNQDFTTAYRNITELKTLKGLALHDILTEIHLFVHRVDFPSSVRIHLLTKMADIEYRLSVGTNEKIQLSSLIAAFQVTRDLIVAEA
UniProt Q96PM5: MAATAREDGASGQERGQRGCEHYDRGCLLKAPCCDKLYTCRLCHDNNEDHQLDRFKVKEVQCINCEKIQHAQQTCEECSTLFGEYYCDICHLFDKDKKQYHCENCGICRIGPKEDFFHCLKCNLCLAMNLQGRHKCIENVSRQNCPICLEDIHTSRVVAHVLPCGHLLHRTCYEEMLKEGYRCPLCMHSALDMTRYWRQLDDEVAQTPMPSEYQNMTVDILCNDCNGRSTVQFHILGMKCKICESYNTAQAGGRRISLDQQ
UniProt P62877, whole entry, looked up: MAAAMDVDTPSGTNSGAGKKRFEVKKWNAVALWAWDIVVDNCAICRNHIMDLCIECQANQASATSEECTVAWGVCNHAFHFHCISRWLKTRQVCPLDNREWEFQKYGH
UniProt Q6JBY9, whole entry, looked up: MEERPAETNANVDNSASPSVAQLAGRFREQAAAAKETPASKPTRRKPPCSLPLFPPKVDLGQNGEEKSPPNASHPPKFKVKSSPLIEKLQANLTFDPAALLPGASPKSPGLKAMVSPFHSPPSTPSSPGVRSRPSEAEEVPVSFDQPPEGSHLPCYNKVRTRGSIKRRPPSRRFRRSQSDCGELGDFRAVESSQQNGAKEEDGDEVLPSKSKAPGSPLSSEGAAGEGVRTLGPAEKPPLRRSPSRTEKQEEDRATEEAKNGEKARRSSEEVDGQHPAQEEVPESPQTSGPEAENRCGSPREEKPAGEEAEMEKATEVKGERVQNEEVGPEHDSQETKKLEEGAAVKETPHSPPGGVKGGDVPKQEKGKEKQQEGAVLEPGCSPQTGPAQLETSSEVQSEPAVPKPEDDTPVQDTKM
UniProt O43353, whole entry, looked up: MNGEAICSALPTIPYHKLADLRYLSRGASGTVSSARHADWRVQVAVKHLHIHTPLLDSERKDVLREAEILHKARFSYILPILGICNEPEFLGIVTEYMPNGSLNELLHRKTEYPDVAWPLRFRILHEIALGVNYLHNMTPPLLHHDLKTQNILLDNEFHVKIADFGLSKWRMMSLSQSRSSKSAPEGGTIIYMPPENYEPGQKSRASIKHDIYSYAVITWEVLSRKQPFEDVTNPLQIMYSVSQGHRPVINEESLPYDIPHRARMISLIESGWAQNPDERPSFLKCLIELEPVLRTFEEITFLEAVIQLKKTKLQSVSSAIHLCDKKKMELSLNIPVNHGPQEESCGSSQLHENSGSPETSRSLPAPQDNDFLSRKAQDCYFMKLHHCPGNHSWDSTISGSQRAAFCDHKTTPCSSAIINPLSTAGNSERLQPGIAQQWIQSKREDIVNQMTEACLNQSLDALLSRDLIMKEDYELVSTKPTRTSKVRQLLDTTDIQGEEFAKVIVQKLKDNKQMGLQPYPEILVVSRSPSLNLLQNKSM
UniProt Q96DM3: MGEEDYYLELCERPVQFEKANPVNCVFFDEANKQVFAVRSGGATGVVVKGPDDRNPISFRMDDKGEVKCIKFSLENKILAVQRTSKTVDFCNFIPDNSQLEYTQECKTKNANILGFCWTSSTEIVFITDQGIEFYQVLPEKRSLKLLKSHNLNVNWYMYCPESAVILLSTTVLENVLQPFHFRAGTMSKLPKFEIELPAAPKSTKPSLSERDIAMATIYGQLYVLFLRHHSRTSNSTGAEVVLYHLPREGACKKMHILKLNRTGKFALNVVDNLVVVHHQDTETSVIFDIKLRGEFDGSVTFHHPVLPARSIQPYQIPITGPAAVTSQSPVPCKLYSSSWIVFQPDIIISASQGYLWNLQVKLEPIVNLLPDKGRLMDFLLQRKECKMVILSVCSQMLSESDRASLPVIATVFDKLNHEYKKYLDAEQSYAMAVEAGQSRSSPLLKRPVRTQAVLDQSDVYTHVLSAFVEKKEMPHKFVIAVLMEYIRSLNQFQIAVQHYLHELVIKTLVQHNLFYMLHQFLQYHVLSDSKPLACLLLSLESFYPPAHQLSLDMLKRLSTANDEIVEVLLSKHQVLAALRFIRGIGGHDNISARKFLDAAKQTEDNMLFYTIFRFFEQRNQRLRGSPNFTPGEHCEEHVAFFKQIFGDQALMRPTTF
UniProt Q9Y256: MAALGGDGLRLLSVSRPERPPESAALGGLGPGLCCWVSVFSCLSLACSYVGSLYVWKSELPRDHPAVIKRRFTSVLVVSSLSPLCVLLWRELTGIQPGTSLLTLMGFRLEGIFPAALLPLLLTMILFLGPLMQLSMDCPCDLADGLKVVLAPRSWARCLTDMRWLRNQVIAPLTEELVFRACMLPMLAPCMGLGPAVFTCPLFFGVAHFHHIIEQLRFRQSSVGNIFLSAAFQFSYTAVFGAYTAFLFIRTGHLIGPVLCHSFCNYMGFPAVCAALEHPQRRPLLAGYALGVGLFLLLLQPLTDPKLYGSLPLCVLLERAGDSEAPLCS
UniProt Q96HR9: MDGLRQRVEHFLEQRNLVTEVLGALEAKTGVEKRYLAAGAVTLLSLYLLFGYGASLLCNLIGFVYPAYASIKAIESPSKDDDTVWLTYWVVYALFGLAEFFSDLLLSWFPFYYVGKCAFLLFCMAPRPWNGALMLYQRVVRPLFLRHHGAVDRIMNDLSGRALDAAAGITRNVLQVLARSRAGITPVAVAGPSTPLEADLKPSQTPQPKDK
UniProt P40938, whole entry, looked up: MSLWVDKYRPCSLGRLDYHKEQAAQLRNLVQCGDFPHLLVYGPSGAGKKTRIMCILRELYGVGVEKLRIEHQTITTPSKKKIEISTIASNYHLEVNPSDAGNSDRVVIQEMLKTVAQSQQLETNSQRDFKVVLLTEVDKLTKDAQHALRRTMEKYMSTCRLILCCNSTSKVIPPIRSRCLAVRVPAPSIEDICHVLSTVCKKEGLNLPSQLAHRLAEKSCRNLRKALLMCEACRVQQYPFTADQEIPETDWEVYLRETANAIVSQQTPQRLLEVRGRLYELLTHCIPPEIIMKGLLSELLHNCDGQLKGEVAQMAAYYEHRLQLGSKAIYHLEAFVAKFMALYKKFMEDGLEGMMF

Tests used:
Assay in all cases: log2 fold change, soluble protein after heating vs DMSO (PISA); higher = thermal stabilisation; K562 cells, 10 uM, 30 min; active = over 0.2 and 3.5 SD of the protein, either way, in both replicates (recomputed)
bafetinib = compound: Cc1ccc(NC(=O)c2ccc(CN3CC[C@H](N(C)C)C3)c(C(F)(F)F)c2)cc1Nc1nccc(-c2cncnc2)n1 [bafetinib]
Summary of the method: (§1)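 Soluble protein was defined as the supernatant after 21,000xg for 90 min. It came from K562 cells at 2×10^6 cells/mL given 10 μM compound for 30 min, heated in aliquots for 3 min across 48°C-58°C, pooled, and extracted in PBS with 0.5% NP-40 at 4°C, and was quantified by TMTpro 16plex LC-MS/MS with equalised channel sums. Thermal stability against control samples, from duplicates, is reported as log2 fold change.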

[1] = compound: Cc1cccc(CC(=O)N2CCc3c2ccc(-c2cn(C)c4ncnc(N)c24)c3F)n1
Summary of the method: as §1

nilotinib = compound: Cc1cn(-c2cc(NC(=O)c3ccc(C)c(Nc4nccc(-c5cccnc5)n4)c3)cc(C(F)(F)F)c2)cn1 [nilotinib]
Summary of the method: as §1

[2] = compound: Cc1nc(Nc2n[nH]c3c2CN(C(=O)N[C@H](CN(C)C)c2ccccc2)C3(C)C)c2sccc2n1
Summary of the method: as §1

dasatinib = compound: Cc1nc(Nc2ncc(C(=O)Nc3c(C)cccc3Cl)s2)cc(N2CCN(CCO)CC2)n1 [dasatinib]
Summary of the method: as §1

[3] = compound: Cc1ncc(-c2ccnc(Nc3ccc(S(C)(=O)=O)cc3)n2)n1C(C)C
Summary of the method: as §1

[4] = compound: Cn1cc(-c2ccc3c(c2)CCN3C(=O)Cc2cccc(C(F)(F)F)c2)c2c(N)ncnc21
Summary of the method: as §1

[5] = compound: Cn1cc(-c2ccc3nnc(C(F)(F)c4ccc5ncccc5c4)n3n2)cn1
Summary of the method: as §1

tipifarnib = compound: Cn1cncc1[C@@](N)(c1ccc(Cl)cc1)c1ccc2c(c1)c(-c1cccc(Cl)c1)cc(=O)n2C [tipifarnib]
Summary of the method: as §1

mubritinib = compound: FC(F)(F)c1ccc(/C=C/c2nc(COc3ccc(CCCCn4ccnn4)cc3)co2)cc1 [mubritinib]
Summary of the method: as §1

[6] = compound: NC(=O)Nc1cc(-c2cccc(F)c2)sc1C(=O)N[C@H]1CCCNC1
Summary of the method: as §1

[7] = compound: NC(=O)c1cnc(N[C@@H]2CCCC[C@@H]2N)nc1Nc1cccc(-n2nccn2)c1
Summary of the method: as §1

[8] = compound: NC1(c2ccc(-c3nc4ccn5c(=O)[nH]nc5c4cc3-c3ccccc3)cc2)CCC1
Summary of the method: as §1

[9] = compound: NCC(=O)Nc1ccc(-n2nc(C(F)(F)F)cc2-c2ccc3c(ccc4ccccc43)c2)cc1
Summary of the method: as §1

entinostat = compound: Nc1ccccc1NC(=O)c1ccc(CNC(=O)OCc2cccnc2)cc1 [entinostat]
Summary of the method: as §1

vorinostat = compound: O=C(CCCCCCC(=O)Nc1ccccc1)NO [vorinostat]
Summary of the method: as §1

citarinostat = compound: O=C(CCCCCCNC(=O)c1cnc(N(c2ccccc2)c2ccccc2Cl)nc1)NO [citarinostat]
Summary of the method: as §1

silmitasertib = compound: O=C(O)c1ccc2c(c1)nc(Nc1cccc(Cl)c1)c1ccncc12 [silmitasertib]
Summary of the method: as §1

[10] = compound: O=C1NC(=O)C(c2cnc3ccccn23)=C1c1cn2c3c(cc(F)cc13)CN(C(=O)N1CCCCC1)CC2
Summary of the method: as §1

[11] = compound: c1cc(OCCN2CCCCC2)cc(-c2n[nH]c3ccc(-c4nnc[nH]4)cc23)c1
Summary of the method: as §1

Measured: log2 fold change

RNF220 (UniProt Q5VTB9)
active: [5] 0.239
inactive: bafetinib -0.064 | [1] 0.008 | nilotinib 0.009 | [2] -0.058 | dasatinib 0.01 | [3] 0.037 | [4] -0.034 | tipifarnib -0.003 | mubritinib 0.002 | [6] 0.01 | [7] -0.019 | [8] -0.002 | [9] -0.06 | entinostat -0.037 | vorinostat 0.052 | citarinostat 0.043 | silmitasertib 0.025 | [10] -0.075 | [11] -0.038

RIPK1 (UniProt Q13546)
active: [1] 1.12 | [3] 1.18 | [4] 1.49
inactive: bafetinib 0.209 | nilotinib -0.007 | [2] -0.196 | dasatinib 0.197 | [5] -0.052 | tipifarnib -0.121 | mubritinib -0.089 | [6] 0.037 | [7] -0.06 | [8] -0.092 | [9] -0.009 | entinostat 0.088 | vorinostat -0.014 | citarinostat -0.006 | silmitasertib 0.025 | [10] 0.205 | [11] 0.047

RCC1 isoform 2 (UniProt P18754)
inactive: bafetinib 0.013 | [1] 0.002 | nilotinib 0.069 | [2] -0.137 | dasatinib -0.159 | [3] 0 | [4] 0.139 | [5] -0.004 | tipifarnib -0.112 | mubritinib 0.296 | [6] -0.084 | [7] -0.174 | [8] -0.18 | [9] -0.066 | entinostat 0.132 | vorinostat 0.094 | citarinostat 0.026 | silmitasertib -0.056 | [10] -0.132 | [11] -0.024

Retrieved one by one from above, 2 records:
RIPK1 (UniProt Q13546)
active: [1] 1.12 | [3] 1.18 | [4] 1.49
inactive: bafetinib 0.209 | nilotinib -0.007 | [2] -0.196 | dasatinib 0.197 | [5] -0.052 | tipifarnib -0.121 | mubritinib -0.089 | [6] 0.037 | [7] -0.06 | [8] -0.092 | [9] -0.009 | entinostat 0.088 | vorinostat -0.014 | citarinostat -0.006 | silmitasertib 0.025 | [10] 0.205 | [11] 0.047

RNF220 (UniProt Q5VTB9)
active: [5] 0.239
inactive: bafetinib -0.064 | [1] 0.008 | nilotinib 0.009 | [2] -0.058 | dasatinib 0.01 | [3] 0.037 | [4] -0.034 | tipifarnib -0.003 | mubritinib 0.002 | [6] 0.01 | [7] -0.019 | [8] -0.002 | [9] -0.06 | entinostat -0.037 | vorinostat 0.052 | citarinostat 0.043 | silmitasertib 0.025 | [10] -0.075 | [11] -0.038

(continued)

RNF214 (UniProt Q8ND24)
inactive: bafetinib -0.019 | [1] 0.055 | nilotinib -0.061 | [2] -0.022 | dasatinib -0.12 | [3] 0.04 | [4] -0.051 | [5] -0.011 | tipifarnib -0.056 | mubritinib 0.041 | [6] -0.056 | [7] 0 | [8] 0.05 | [9] -0.065 | entinostat 0.038 | vorinostat 0.086 | citarinostat 0.022 | silmitasertib 0.086 | [10] 0.047 | [11] -0.144

RBM8A (UniProt Q9Y5S9)
inactive: bafetinib -0.013 | [1] -0.014 | nilotinib -0.047 | [2] -0.063 | dasatinib 0.001 | [3] 0.126 | [4] -0.02 | [5] 0.065 | tipifarnib 0.019 | mubritinib 0.013 | [6] -0.044 | [7] 0.075 | [8] -0.045 | [9] -0.068 | entinostat 0.037 | vorinostat -0.025 | citarinostat 0.03 | silmitasertib 0.011 | [10] -0.019 | [11] -0.076

RCC2 (UniProt Q9P258)
inactive: bafetinib -0.029 | [1] 0.028 | nilotinib -0.013 | [2] 0.006 | dasatinib -0.053 | [3] -0.013 | [4] 0.043 | [5] 0.018 | tipifarnib -0.065 | mubritinib 0.039 | [6] -0.054 | [7] -0.039 | [8] -0.044 | [9] -0.054 | entinostat -0.01 | vorinostat -0.007 | citarinostat 0.01 | silmitasertib -0.036 | [10] -0.088 | [11] 0.008

RNF114 (UniProt Q9Y508)
inactive: bafetinib -0.043 | [1] -0.008 | nilotinib 0.022 | [2] -0.008 | dasatinib -0.039 | [3] -0.02 | [4] 0.002 | [5] -0.031 | tipifarnib -0.082 | mubritinib 0.002 | [6] -0.025 | [7] -0.027 | [8] 0.009 | [9] 0.009 | entinostat -0.02 | vorinostat -0.035 | citarinostat 0.056 | silmitasertib -0.008 | [10] -0.064 | [11] -0.016

RFC5 (UniProt P40937)
inactive: bafetinib -0.059 | [1] 0.004 | nilotinib -0.068 | [2] -0.032 | dasatinib -0.076 | [3] 0 | [4] 0.033 | [5] 0.01 | tipifarnib -0.027 | mubritinib -0.021 | [6] 0.029 | [7] -0.022 | [8] -0.097 | [9] -0.001 | entinostat 0 | vorinostat 0.059 | citarinostat 0.022 | silmitasertib -0.016 | [10] 0 | [11] -0.02

RCHY1 (UniProt Q96PM5)
inactive: bafetinib -0.083 | [1] 0.074 | nilotinib -0.052 | [2] 0.004 | dasatinib 0.054 | [3] -0.026 | [4] -0.034 | [5] 0.002 | tipifarnib -0.054 | mubritinib -0.03 | [6] -0.007 | [7] -0.004 | [8] 0.063 | [9] 0 | entinostat -0.043 | vorinostat -0.168 | citarinostat 0.004 | silmitasertib 0.004 | [10] -0.21 | [11] 0.088

RBX1 (UniProt P62877)
inactive: bafetinib 0.037 | [1] -0.018 | nilotinib -0.03 | [2] -0.015 | dasatinib 0.009 | [3] -0.039 | [4] 0.042 | [5] 0.03 | tipifarnib 0.098 | mubritinib -0.014 | [6] -0.065 | [7] -0.013 | [8] 0.438 | [9] -0.009 | entinostat -0.042 | vorinostat 0.011 | citarinostat 0.042 | silmitasertib -0.172 | [10] 0 | [11] -0.102

RCSD1 (UniProt Q6JBY9)
inactive: bafetinib 0.013 | [1] -0.101 | nilotinib 0.096 | [2] -0.111 | dasatinib 0.13 | [3] -0.009 | [4] -0.036 | [5] 0.003 | tipifarnib 0.014 | mubritinib 0.042 | [6] -0.03 | [7] -0.086 | [8] 0.048 | [9] -0.028 | entinostat -0.096 | vorinostat -0.081 | citarinostat -0.005 | silmitasertib -0.022 | [10] -0.077 | [11] 0.104

RIPK2 (UniProt O43353)
inactive: bafetinib -0.156 | [1] 0.044 | nilotinib -0.031 | [2] -0.003 | dasatinib -0.122 | [3] 0.036 | [4] 0.043 | [5] 0.011 | tipifarnib -0.027 | mubritinib -0.008 | [6] -0.113 | [7] 0.017 | [8] -0.027 | [9] 0.007 | entinostat 0 | vorinostat 0.065 | citarinostat 0.032 | silmitasertib 0.032 | [10] -0.027 | [11] -0.029

RMC1 (UniProt Q96DM3)
inactive: bafetinib -0.043 | [1] 0.072 | nilotinib -0.032 | [2] -0.047 | dasatinib -0.063 | [3] -0.082 | [4] 0.03 | [5] -0.016 | tipifarnib 0.045 | mubritinib 0.012 | [6] -0.026 | [7] -0.141 | [9] -0.039 | entinostat 0.048 | vorinostat 0.017 | citarinostat 0.04 | silmitasertib 0.025 | [10] -0.036 | [11] -0.045
active: [8] -0.384

RCE1 (UniProt Q9Y256)
inactive: bafetinib -0.113 | [1] -0.213 | nilotinib -0.164 | [2] 0.023 | dasatinib -0.001 | [3] -0.212 | [4] -0.296 | [5] 0.022 | tipifarnib 0.084 | mubritinib 0.091 | [6] -0.002 | [7] -0.039 | [8] -0.02 | [9] 0.108 | entinostat -0.075 | vorinostat 0.207 | citarinostat -0.029 | silmitasertib 0.159 | [10] 0.498 | [11] 0.019

REEP6 (UniProt Q96HR9)
inactive: bafetinib -0.072 | [1] -0.112 | nilotinib -0.025 | [2] 0.026 | dasatinib 0.082 | [3] -0.062 | [4] 0.085 | [5] 0.165 | tipifarnib -0.057 | mubritinib -0.017 | [6] -0.044 | [7] -0.092 | [8] -0.017 | [9] 0.015 | entinostat -0.017 | vorinostat -0.137 | citarinostat 0.031 | silmitasertib 0.03 | [10] -0.031 | [11] 0.002

RFC3 (UniProt P40938)
inactive: bafetinib -0.035 | [1] 0.049 | nilotinib -0.016 | [2] -0.017 | dasatinib -0.032 | [3] -0.011 | [4] 0.053 | [5] -0.01 | tipifarnib -0.051 | mubritinib 0.045 | [6] -0.001 | [7] -0.039 | [8] -0.078 | [9] -0.023 | entinostat -0.028 | vorinostat 0.028 | citarinostat 0.077 | silmitasertib -0.006 | [10] -0.039 | [11] -0.013
